A short description of the test: qHTS Assay for Lipid Storage Modulators in Drosophila S3 Cells.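 On cell number change: cells counted by Cell Tracker Red CMTPX staining in the red channel.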 As to conditions: BODIPY lipid droplet fluorescence, 18-24 h; for cell number change: measured here: cell count max response, cells fed with added oleic acid. The gist of the method: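 Laser-scanning cytometry quantifies lipid droplet accumulation (500–530 nm total intensity; droplet/cell object ratio) in oleic acid-fed (400 uM added) Drosophila S3 cells treated with a concentration series. 20 uM Triacsin C defined 100% inhibition.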
(In general: In qHTS, concentration-response curves come from the screen itself.)

Setting [1] is: measured here: cell number channel AC50, cells fed with added oleic acid.
Setting [2] is: measured here: lipid fluorescence (Fed channel) AC50, cells fed with added oleic acid.

This is one part of the list. The main result of the screen is listed elsewhere. These columns were measured beside it and carry no call. Compounds called inactive in the main read-out are mostly missing here. Words in brackets tell the shape of the fitted curve; partial curves, single points and poor fits give uncertain potencies.

As to `Brc1ccc(CNCc2cccs2)cc1`, the cell number change turned out to be 39%. Also, under setting [1], the half-maximal activity concentration (AC50) was 0.58 µM [rising, full curve].
As for `CCOc1ccc(-c2nnc3ccc(SCC(=O)NCc4ccco4)nn23)cc1`, the cell number change worked out at 1.15%. For the same compound, the half-maximal activity concentration (AC50) under setting [2] is 1.46 µM [falling, full curve, poor fit].
Consider `CCC(C)C(NC(=O)CCC(=O)OCC(=O)[C@@]1(O)CCC2[C@@H]3CCC4=CC(=O)C=C[C@]4(C)C3[C@@H](O)C[C@@]21C)C(=O)O` (some centres undefined), for which the cell number change was -21.3%. Also, the AC50 under setting [2] is 0.651 µM [falling, full curve, poor fit].
Regarding `O=C(COC(=O)c1ccc[nH]c1=O)Nc1cc(S(=O)(=O)N2CCCCCC2)ccc1Cl`, under setting [1], the AC50 is 2.59 µM [rising, single point].
Turning to `O=C(Nc1cc(Cl)ccc1Cl)C1CC(=O)N(c2ccccc2)C1` (centres undefined), the cell number change came to 17.9%.
Consider `CC[n+]1c(C)cc(C)n1-c1ccccc1`, for which the cell number change stood at 14.2%.
For the compound `S=C(NCCN1CCOCC1)N1CCN(c2cccc(Cl)c2)CC1`, the cell number change amounted to 35.8%.
As for `COc1ccc2oc(=O)c(-c3csc(Nc4ccc(O)cc4)n3)cc2c1`, the cell number change was -64.1%. Moreover, the concentration at half-maximal activity (AC50) under setting [1] is 29.1 µM [falling, single point]. Moreover, the AC50 under setting [2] is 11.6 µM [falling, partial curve].
For the compound `Cc1cc(C)c(C(=O)COC(=O)c2cc([N+](=O)[O-])ccc2NCCO)cc1C`, the cell number change was -20%. The AC50 under setting [2] was 32.6 µM [falling, single point].
For `Cc1nn(CC(=O)N2CCN(c3ccccn3)CC2)c(=O)c2cc3sccc3n12`, the cell number change was 12.3%.
As for `O=C(Nc1ccon1)c1ccccc1Cl`, the cell number change was -13.1%. Also, the concentration at half-maximal activity (AC50) under setting [2] is 0.731 µM [falling, full curve, poor fit].
Consider `O=C(NCc1ccccc1)c1cnc(Cl)c(Cl)c1`, for which the cell number change is -10.5%. For the same compound, the AC50 under setting [2] is 35.5 µM [falling, single point].
Turning to `O=C(c1nn2c(C(F)(F)F)cc(-c3ccco3)nc2c1Br)N1CCCc2ccccc21`, the AC50 under setting [1] is 0.13 µM [rising, full curve] and the half-maximal activity concentration (AC50) under setting [2] is 0.164 µM [rising, full curve].
Consider `Cc1ccc(-n2c(C)nn(CC3CC3)c2=O)cc1`, for which the cell number change turned out to be 41.8%.
For `CN(Cc1ccccc1)C(=O)CN1CCN(C(c2ccccc2)c2ccccc2)CC1`, the cell number change is -31.3%. The half-maximal activity concentration (AC50) under setting [2] was 35.5 µM [falling, single point].
Regarding `O=C(CCc1ccccc1)N1CCN(S(=O)(=O)c2cccs2)CC1`, the cell number change stood at 13.9%.
On to `CCOC(=O)C(=NC(C)(C)C)NNc1cc(Cl)ccc1Cl`, for which the cell number change is -24.9%.
For `CCN(CC)C(=O)c1n[nH]c(=O)c2ccccc12`, the cell number change is -12.7%. The AC50 under setting [2] is 0.058 µM [falling, full curve].
`Cc1nc2ccccc2c2c1C(=O)N(c1ccc(C(=O)O)cc1)C2=O`: the cell number change was -24.8%.
In the case of `Cc1csc(NC(=O)C2CCCN2C(=O)OCC(C)C)n1` (centres undefined), under setting [2], the AC50 was 0.58 µM [rising, single point].
With `CCCc1nc(N)c(C#N)c(-c2ccco2)c1CC`, the cell number change was -22.7%. In addition, the concentration at half-maximal activity (AC50) under setting [2] was 29.1 µM [falling, single point].
As for `CC(C)(C)n1nnnc1CN1CCC(NC(=O)NC2CCCCC2)CC1`, the cell number change came out at 9.06%. The concentration at half-maximal activity (AC50) under setting [2] is 29.1 µM [rising, single point].
Consider `Cc1ccc(C(=O)Nc2nc(=O)n(C)s2)cc1`, for which the cell number change was 9.96%. Further, the AC50 under setting [2] was 0.82 µM [rising, single point].
In the case of `Cc1cc(=O)n(C)c2ccccc12`, the cell number change came to 22.6%. In addition, the AC50 under setting [2] was 14.6 µM [rising, partial curve, poor fit].
Consider `CCCc1c(C)nn(-c2ncccc2[N+](=O)[O-])c1C`, for which the cell number change was -32%. Further, the AC50 under setting [1] is 29.1 µM [falling, single point].
In the case of `Cc1nc(NC(=O)c2ccc(F)cc2)nc2cc3c(cc12)OCO3`, the cell number change came out at 62.8%. The concentration at half-maximal activity (AC50) under setting [1] was 29.1 µM [rising, single point]. For the same compound, the concentration at half-maximal activity (AC50) under setting [2] was 29.1 µM [rising, single point].
Take `COc1ccc(NC(=O)CSc2nnc(-c3cccs3)n2C)cc1OC`: the cell number change stood at 16.1%. The half-maximal activity concentration (AC50) under setting [2] is 0.326 µM [rising, full curve, poor fit].
As for `O=C(COc1ccccc1)Nc1ccc(S(=O)(=O)N2CCOCC2)cc1`, the cell number change is 10.5%. In addition, under setting [2], the AC50 is 16.4 µM [falling, single point].
Regarding `CCc1ccc2nc3nc(C)cc(C)c3c(N)c2c1`, the cell number change is -1.27%. For the same compound, the AC50 under setting [2] is 0.146 µM [falling, full curve, poor fit].
Turning to `CCC(C)(C)n1nnnc1C(C(C)C)N(CCN1CCOCC1)Cc1cc2cccc(C)c2[nH]c1=O` (centres undefined), the cell number change turned out to be 39.9%. Moreover, the AC50 under setting [1] was 1.03 µM [rising, full curve, poor fit]. Moreover, the AC50 under setting [2] was 2.91 µM [rising, partial curve].
As for `CCN(CC)CCCNC(=O)Cn1ccc2ccccc2c1=O`, the cell number change was -29.6%. For the same compound, the concentration at half-maximal activity (AC50) under setting [1] was 0.82 µM [falling, full curve]. Under setting [2], the AC50 is 0.231 µM [falling, full curve].
As for `Cc1occc1C(=O)NNS(=O)(=O)c1ccc([N+](=O)[O-])cc1`, the cell number change is 1.3%. Moreover, the half-maximal activity concentration (AC50) under setting [2] is 18.4 µM [falling, partial curve].
Regarding `Cc1nn(Cc2ccccc2)c(C)c1C(=O)Nc1ccc(N2CCOCC2)cc1`, the cell number change came out at 51.3%. The half-maximal activity concentration (AC50) under setting [1] was 29.1 µM [rising, single point]. In addition, under setting [2], the AC50 is 29.1 µM [rising, single point].
`CC(Sc1nccn1C)C(=O)NC1(C#N)CCCCC1` (centres undefined): the cell number change was found to be 2.05%. Moreover, the AC50 under setting [2] was 29.1 µM [rising, single point].
On to `N#C/C(=C1\C(=O)Nc2c(Cl)cc(Cl)cc21)c1nnc2n1CCCCC2`, for which the cell number change was -63.2%. Moreover, under setting [1], the AC50 was 16.4 µM [falling, single point].
In the case of `Cn1c(N)c(C(=O)COC(=O)C2CCCN2C(=O)c2cccs2)c(=O)n(C)c1=O` (centres undefined), the cell number change amounted to 32.4%.
Still for that read-out and setting: then `COc1ccc(/C=C(\C#N)C(=O)OCC(=O)NC2CC2)cc1`, with 60.7%.
In the case of `Cc1ccccc1N1CC(C(=O)Nc2ccc(S(=O)(=O)N3CCCC3)cc2)CC1=O` (centres undefined), the AC50 under setting [2] is 2.91 µM [falling, single point].
Regarding `Cc1nn(C(C)C(=O)N2CCOCC2)c(=O)c2nn(-c3ccccc3)c(C)c12` (centres undefined), the cell number change turned out to be 19.2%. Under setting [2], the half-maximal activity concentration (AC50) was 29.1 µM [rising, single point].
On to `CN1CCc2c(sc(NC(=O)C3COc4ccccc4O3)c2C(N)=O)C1` (centres undefined), for which the cell number change is -4.96%. Also, the AC50 under setting [2] is 29.1 µM [falling, single point].
With `NC(=O)c1ccsc1NC(=O)COC(=O)COc1ccc(C=O)cc1`, the cell number change amounted to 4.45%. For the same compound, the AC50 under setting [1] was 6.51 µM [falling, single point].
Regarding `Cc1ccc(S(=O)(=O)/N=C(\CN2CCOCC2)N2CCOCC2)cc1`, the cell number change is -0.0806%. In addition, under setting [2], the concentration at half-maximal activity (AC50) was 6.51 µM [falling, single point].
Take `CCN(CC(=O)Nc1ccc(Cl)c(S(=O)(=O)N(C)C)c1)CC(=O)NC(C)C`: the AC50 under setting [2] is 0.58 µM [rising, single point].
As for `O=C(CCN1C(=O)c2ccccc2C1=O)C1=NN[C@@H]2C(=O)N(c3ccc(F)cc3)C(=O)[C@H]12`, the cell number change was 0.549%.
In the case of `Cc1[nH]c2ccccc2c1C(=O)C(C)OC(=O)c1ccccc1NCCO` (centres undefined), the cell number change was -0.227%. Besides, the concentration at half-maximal activity (AC50) under setting [1] was 0.013 µM [rising, full curve, poor fit]. Under setting [2], the concentration at half-maximal activity (AC50) is 0.92 µM [rising, partial curve].
Consider `O=C(O)COCC(=O)Nc1ccc(Oc2ncnc3cc(Cl)ccc23)nc1`, for which the cell number change was found to be 9.29%.
As to `Cc1ccc(CNC(=O)c2ccc(N3CCC4(CC3)CC(c3cccc(Br)c3)=NO4)c([N+](=O)[O-])c2)cc1`, the cell number change was -8.52%. Further, the AC50 under setting [2] was 3.66 µM [falling, single point].
As to `COc1ccc(C(=O)Nc2cccc(C(=O)O)c2)cc1S(=O)(=O)N1CCCC1`, the cell number change was determined as 3.96%. The AC50 under setting [2] is 0.651 µM [rising, full curve].
`Cn1c(=O)c2c3c(sc2n2cnnc12)CCC3`: the cell number change is -17.6%.
As to `CCOC(=O)c1sc(NC(=O)C2CC(=O)N(c3ccccc3OC)C2)nc1C` (centres undefined), the cell number change is 32.8%. For the same compound, under setting [1], the half-maximal activity concentration (AC50) is 29.1 µM [rising, single point]. Besides, the AC50 under setting [2] is 23.1 µM [rising, single point].
Consider `CCN(c1ccccc1)S(=O)(=O)c1ccc(F)cc1`, for which the cell number change turned out to be 5.34%.
For the compound `CCOC(=O)c1ccc(NC(=S)Nc2ccc(C)cc2)cc1`, the cell number change stood at 15.9%. Moreover, the half-maximal activity concentration (AC50) under setting [1] is 0.82 µM [rising, full curve, poor fit]. In addition, under setting [2], the half-maximal activity concentration (AC50) is 29.1 µM [falling, single point].
For `CC(C)c1ccc(OCC(=O)Nc2cccc(C(=O)Nc3ccccc3C(=O)O)c2)cc1`, the cell number change came out at 31.4%.
As for `Cc1ccc(S(=O)(=O)N2CCN(C(=O)COc3ccc(Br)cc3)CC2)cc1`, the cell number change was -17.5%. Under setting [2], the AC50 was 0.0058 µM [falling, full curve, poor fit].
As for `CCN(Cc1ccccc1)c1ccc(/C=N/NC(=O)c2cccc(S(=O)(=O)N3CCOCC3)c2)cc1`, the AC50 under setting [2] is 2.31 µM [rising, single point].
Turning to `Cc1cc(C)cc(NC(=O)C2C3C=CC4(O3)C2C(=O)N(CCCN2CCCC2)C4C(=O)NC2CCCC(C)C2C)c1` (centres undefined), the cell number change was found to be 110%. Under setting [1], the concentration at half-maximal activity (AC50) was 7.31 µM [rising, partial curve]. For the same compound, under setting [2], the half-maximal activity concentration (AC50) was 6.51 µM [falling, single point].
Consider `CCOC(=O)c1ccccc1N1C(=O)C2Sc3[nH]c(=O)sc3C(/C=C/c3ccccc3)C2C1=O` (centres undefined), for which the cell number change came to 10%. For the same compound, under setting [2], the AC50 is 0.58 µM [falling, single point].
Consider `COc1cc(/C=C/C(=O)OCC(=O)c2c(N)n(C)c(=O)n(C)c2=O)ccc1O`, for which the cell number change is -9.24%.
Consider `Cc1cc(-c2ccccc2)n2ncc(C#N)c2n1`, for which the cell number change was determined as 17.5%. Further, the concentration at half-maximal activity (AC50) under setting [2] is 16.4 µM [rising, single point].
Turning to `O=C(NCc1cccnc1)c1ccc(N2CCOCC2)c([N+](=O)[O-])c1`, the cell number change is -11.2%. Under setting [1], the concentration at half-maximal activity (AC50) was 0.146 µM [falling, full curve].
As for `CCc1ccc(CNC(=O)CN2C(=O)COc3ccccc32)cc1`, the cell number change was 2.57%. For the same compound, the half-maximal activity concentration (AC50) under setting [2] was 4.11 µM [falling, partial curve, poor fit].
Turning to `Cc1cc(NC(=O)COC(=O)[C@H](C)NC(=O)c2ccccc2)no1`, the cell number change worked out at 7.47%. Besides, the AC50 under setting [2] was 0.116 µM [falling, full curve, poor fit].
Take `COc1cccc(C(=O)Nc2ccc(-c3nc4ccccc4o3)c(O)c2)c1`: the AC50 was 2.06 µM [falling, partial curve] under setting [1] and 2.06 µM [falling, partial curve] under setting [2].

Usually AC50 stands for the midpoint of the concentration-response curve, whichever way the signal moves.

For the origin of these results see PubChem BioAssay AID2685 (National Center for Advancing Translational Sciences (NCATS), 2010).
